From patent US20030172404A1, “Method of modifying plant characters by the targeted expression of a cell cycle control protein” (priority 1999, published 2003)
At least one structure is not confirmed: it was looked up by name or label, or the drawing left a doubt.

How the values were obtained:
untransformed cells = assay: Cell division in untransformed control cells treated with dexamethasone; type: cell-based, N. plumbaginifolia
[1] = tested on: tobacco cells containing a dexamethasone-inducible Cdc25 gene; settings: daughter cells; nine-fold dilution every 7 days as in control cultures

C[C@@H]1C[C@H]2[C@@H]3CCC4=CC(=O)C=C[C@]4(C)[C@@]3(F)[C@@H](O)C[C@]2(C)[C@@]1(O)C(=O)CO [dexamethasone]
cell division in untransformed cells (untransformed cells): No cell division was observed | long-term proliferation with dexamethasone replacing cytokinin [1]: could proliferate indefinitely
